# Assay results taken from US4208327A, “5-Aryl-1-(2-oxazolin-2-yl)-1H-1,4-benzodiazepines and related compounds” (G. D. Searle & Co., priority 1979, dated 1980).
# Like-named read-outs stand apart in the source and are kept apart here.
# Assays:
# [1] = Rotarod test (muscle relaxant); type: in vivo, mice; conditions: intragastric; for ED50: Mus musculus, po, read-out: Rotarod ED50 (95% confidence limits)
# Procedure: Using this procedure [after Dunham, N.W. and T.S. Miya, J. Amer. Pharm. […] The compounds were administered intragastrically to mice at varying time periods before being placed on the horizontal rotating (4.4 rpm) rod. Different groups of mice were assigned to each time period so that a subject was tested only once. A testing trial consisted of two opportunities to stay on the rod for one minute. ED50 's were calculated for each time period.
# [2] = Blockade of pentylenetetrazole induced clonic convulsions, intragastric
# Procedure: Exp. Ther., 108, 168 (1953)]. […] Both test compounds were administered intragastrically at specific time periods prior to the pentylenetetrazole challenge, and the ED50 for blockade of clonic convulsions was determined for each time period. Duration of activity is inferred from increases in the ED50 with time.
# [3] = Potentiation of a sub-hypnotic dose of pentobarbital sodium (loss of righting reflex); conditions: intragastric, two hour period
# Description: In this procedure an ED50 for loss of righting reflex was established.
compound,measurement,setting,value
"CN1C(=O)CN=C(c2ccccc2)c2cc(Cl)ccc21 [Diazepam, diazepam, reference compound]",ED50,"[1]; 0.08 h, .08 hours",6 mg/kg
same,ED50,"[1]; 0.25 h, .25 hours",3.2 mg/kg
same,ED50,[1]; 1.0 hours,5.7 mg/kg
same,ED50,[1]; 2.0 hours,7.7 mg/kg
same,increase of rotarod ED50 from 15 minutes to 2 hours,[1],about 2.5 times
same,time to peak effect (rotarod),[1],15 min
same,stability of ED50 over 2 hours,[2],remained stable for 2 hours
same,stability of ED50 for potentiating pentobarbital sodium,[3],remained fairly stable
